Here are results for 104 sequences from PubChem BioAssay AID1347423 (Functional Genomics Laboratory (NCATS/FGL), 2020).

Screen size: about 52,000 sequences; about 210 (0.4%) were called active.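 The calls were made as follows: active = gene whose silencing raises cell survival under the drug, median off-target-corrected z-score across its silencing RNAs 2 or more; inactive = the rest.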 The list shows a part of the results.

The nature of this test: Resistance to Poly (ADP-Ribose) Polymerase inhibitor: Gene Identification via Genome-wide siRNA Screen. To be noted: mouse BRCA2 R2336H ES cells, olaparib, CellTiter-Glo viability; stronger effect = higher value. In a few lines:
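Mouse BRCA2 R2336H ES cells were reverse-transfected with siRNA (20 nM final), treated at 48 h with 500 nM olaparib, and read by CellTiter-Glo after 72 h. Scores: MAD-based z per siRNA, median per gene, seed off-target correction.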
Consider GGUCGAAGUGAAACCAGUCTT against Pik3r2, for which the z-score is inactive: 0.384.

As to GCAUGUUUCCCUACUAUGATT against Pet2, the z-score was inactive: 1.25.

Regarding “CCUGACGAAAAUGUUUUAATT against C820005L12Rik”, the z-score was inactive: 0.24.

For GGGCUCCACUACCUAAUCATT against Gpr83, the z-score is inactive: 1.91.

Turning to GCUGAAACCUCAUGAGGAGTT against Ptpn9, the z-score is active: 3.06.

Regarding GGAAAAGGAAAUAAAAGAGTT against Hemgn, the z-score is inactive: -0.654.

With GCGAGAAUUCUCUUCCAAUTT against Gsh2, the z-score is inactive: 0.938.

Consider CGCAAUGUAUGAUUCAAUGTT against Mogat1, for which the z-score is inactive: 0.0906.

On to CCUAUUCCAUUGACAAUGATT against Tubb2, for which the z-score is inactive: 0.0982.

In the case of GGUCAUCUUUCCAGUCAGCTT against Mak3, the z-score is inactive: -1.99.

For GGAUGAACCACCAUAUGUGTT against Olfr1188, the z-score was inactive: -0.532.

For the sequence GGAGAACUGUCAUAUGCUUTT against Cntn3, the z-score was inactive: 0.215.

With GCCUUGUACUGUGUAUAUATT against Gse1, the z-score was inactive: -0.159.

In the case of GGACUGUUACAAAUGAAGUTT against Cxcl1, the z-score was inactive: 0.714.

With CCUAGUAGCCGAGAAACAUTT against Olfr1137, the z-score is inactive: -0.259.

In the case of “GGCAGGACACCAUAUGGUUTT against 4930427A07Rik”, the z-score is inactive: -1.03.

Consider “GGCUAUAGUUCUCUGUUUUTT against 2610528O22Rik”, for which the z-score was inactive: 0.257.

Turning to GGAAAAGAAGAAGUCAGAATT against Clmn, the z-score is inactive: 0.28.

With GGCUUCCUUUUUGAAGCUATT against AB041549, the z-score was inactive: 0.779.

For the sequence GCUAUAGGCAAUGUGAUCUTT against Gm316, the z-score is inactive: -0.342.

Regarding CCCAGCAAAUUCAUUCUACTT against Spon2, the z-score was inactive: 0.967.

With “GGACUUGAACCCAGUUUGCTT against C230030N03Rik”, the z-score was inactive: 0.792.

Turning to GGCACACAGUAACUUGAACTT against V1ra1, the z-score is inactive: 1.09.

GGCUUCAAUAGUUCUCCUATT against Rpl10: the z-score was inactive: -2.36.

As to GGCCUCUCAAAAUCUUCCUTT against Galnt11, the z-score is inactive: -0.659.

Take AUUCAUUGGGAAAAAUUAUTT against Olfr127: the z-score is inactive: 0.609.

GGAACAUUCUGAGAAGAAATT against Cwf19l2: the z-score is inactive: -0.0286.

Consider GAGUUGGCUCGAAACUGCCTT against Fbxl15, for which the z-score was inactive: 0.448.

As to GGAAGUCACAGGGAUGUUGTT against Drbp1, the z-score is inactive: -1.56.

As to CGCUUUAUUAGAUGGGCUATT against Dlx5, the z-score is inactive: 1.47.

Consider “GCUUGCUUAUGGCCUAUUATT against 1110017I16Rik”, for which the z-score was inactive: -1.27.

With GGAAAUUCUCUACUACUGATT against Unc5d, the z-score was inactive: 1.01.

Take “GGAACAUUUUGGAAAAGACTT against 1300017J02Rik”: the z-score is inactive: -0.786.

As for GCCAGACACUUAAUCCCGUTT against Unc13d, the z-score is inactive: -0.0528.

On to GGAAAUGAAAUAGUCUCGUTT against Dpm1, for which the z-score is inactive: 1.05.

As for “GGAAAAGAACCAAAGAAUGTT against 5330439B14Rik”, the z-score was inactive: 0.319.

In the case of CCGAAUUUCUCCUAUUGGGTT against Olfr106, the z-score was inactive: -0.409.

Take GGGCUACACUUGCUGUACUTT against Gpc1: the z-score is inactive: -2.24.

Take “GGUGUUACCAAGAGUGACUTT against 2410019G02Rik”: the z-score was inactive: -0.588.

GGUGAUAGAGUAGAAGAUGTT against Hdgfrp3: the z-score is inactive: -0.917.

In the case of “GGUUGUAUCAGUGAAGACATT against 3110062M04Rik”, the z-score is inactive: 2.

In the case of GCCCGGUAAAGGUAUCCAUTT against Trp53bp1, the z-score was active: 1.78.

For the sequence GGACAUGCUUUUAUAGAUGTT against Hist3h2a, the z-score is inactive: 0.761.

As to GGAUGAAGUUCUUUUUCAATT against Pdcd11, the z-score is inactive: -0.445.

As for GGUGCACUGAAGAACUCCATT against Olfr1494, the z-score is inactive: -1.03.

Take GGUUCCAAUUGGAUAUUUGTT against Cysltr2: the z-score was inactive: 0.466.

Consider CUCUCCAGACUCCUAUGUATT against Olfr1118, for which the z-score is inactive: 1.

GGUUGGUCUCCAAAGAUGGTT against Kcnj1: the z-score was inactive: -0.292.

GGUUCAACGCAAAGUUCGCTT against Aldh4a1: the z-score is inactive: 0.02.

With GGCACUUACACGUUUGGAATT against Cry1, the z-score is inactive: 1.4.

In the case of GGAACAACUUCGUACCAUGTT against BC050789, the z-score was inactive: -0.393.

Take GCGGAGAAACAGGACAACATT against Prrx1: the z-score is inactive: 1.68.

Turning to GCUAUAUAAUGCUUAUGUGTT against Tpr, the z-score is inactive: 0.411.

On to “GGAAGUUUUAUAGACAAACTT against 2810002I04Rik”, for which the z-score was inactive: 0.653.

As to GGAUGGGAUGAAAAUUGAATT against Papolg, the z-score is inactive: -0.794.

As to CCGAGGUUUCAUAUUUCGGTT against Leng9, the z-score was inactive: 1.05.

CGUCCAGUAUACGCUGGUUTT against Cdc45l: the z-score is inactive: -0.103.

GGCCUUCGUCAUCUUCAAGTT against Snrpa: the z-score was inactive: -0.553.

Turning to “GGCUGAAGUUAACAGUAAGTT against 2210415K24Rik”, the z-score is inactive: -0.85.

Regarding GGGUCAACAUCAUCUAUGGTT against Olfr616, the z-score was inactive: -1.61.

As to GGCCCUGCAUUAUCCGAAATT against Pla2g4b, the z-score is inactive: 0.888.

Take GGUCAUUGCUAUUCCGUACTT against Olfr536: the z-score is inactive: -0.0849.

In the case of “GGCAUGAAGCAGGAAGACATT against 2810460C24Rik”, the z-score is inactive: 0.515.

In the case of GCAUCAAUAUCAUUAUUCCTT against Olfr917, the z-score was inactive: -0.264.

As for GGCUACAUUAGUGCCUGGUTT against Trp53rk, the z-score is inactive: -0.226.

On to CCAAGUACUUGAGAGAGACTT against Creb3l1, for which the z-score is inactive: 0.45.

With GGUUGCCAUAGCUUCUCGGTT against Abcg1, the z-score is inactive: 0.208.

Consider GGCGAGGUACUUCCUACCUTT against Nipa1, for which the z-score is inactive: -0.188.

GGGUUGAUUGACGAAGCCATT against Fga: the z-score was inactive: 0.655.

In the case of CGGCACCUAUGAGUCUUACTT against Cyp4x1, the z-score is inactive: -2.58.

As for CCUUCAUGAGUCCUCUUCATT against Gaa, the z-score is inactive: 0.762.

Take CGAAUGCUUAUUUAGGUUGTT against Kpna4: the z-score was inactive: 1.67.

Turning to CCUUGUGUCACUACCCACATT against Nr5a1, the z-score was inactive: -0.189.

Consider “GGGUUCAAAACUAUGGAUATT against 2610018G03Rik”, for which the z-score was inactive: -0.033.

GGGAAUGGCACCAUUUUCUTT against Pbp2: the z-score is inactive: -1.26.

For the sequence GGGCCAUGAUAGGACACACTT against Nme4, the z-score was inactive: -0.351.

Turning to GGCAUGGAAUGAGCUUUUCTT against Nr2e3, the z-score is inactive: 1.1.

In the case of “GGAGCAUCGAUCUUGAUUCTT against D430044G18Rik”, the z-score is inactive: 1.09.

With GCCGUAUUUUGCUUGUUUCTT against Gpr35, the z-score was inactive: -0.846.

Consider GCGUGGUGUAUUUGAAUCATT against Ch25h, for which the z-score is inactive: 0.79.

For “GCCAGUGAUUAGUGUUUAUTT against D8Ertd531e”, the z-score was inactive: -0.933.

With GGUAGUGAAAAUGAAGAGUTT against Gtf2h1, the z-score is inactive: 1.12.

With “CGUAAGUUAUGUGUCUAAGTT against 1810008A18Rik”, the z-score was inactive: -0.452.

As to CCCUCUACACUAUACCACATT against Olfr347, the z-score was inactive: -0.929.

On to “CGAGAAGGGAUUUUAGAAGTT against A830018L16Rik”, for which the z-score is inactive: 0.274.

For “GGAAGAUUACCAACUUUGATT against E130307J04Rik”, the z-score is inactive: -1.2.

Take AGGGCACAAAAGGUGACAATT against Rph3al: the z-score is inactive: 0.501.

As to “CCGCGUCGGGCCACCACUGTT against 2310037P21Rik”, the z-score is inactive: -0.285.

For the sequence GCUUAGUCUUAUGUAGCUCTT against AI662250, the z-score is inactive: -0.256.

Turning to GGUGACUAGAAAAAUGGAUTT against Cd1d1, the z-score was inactive: 0.878.

As to GGACAGUAUGGAAAAGUAUTT against Map3k4, the z-score is inactive: -2.89.

Consider GCACUCUCUACUCUAUUAATT against Ccbp2, for which the z-score was inactive: -1.5.

“GAGCGGGACUUUUGUCAUGTT against 6330580J24Rik”: the z-score is inactive: 0.474.

Turning to GGACUUUAUUGAAAAUCUGTT against Zfp365, the z-score was inactive: 0.101.

Regarding “GGUUCCAGAUGAGAUGAUATT against 5730410I19Rik”, the z-score was inactive: 0.592.

For the sequence GGACAUGAAGUUGUGUGAGTT against Trim26, the z-score is inactive: -1.9.

For GGUGAAACUAAAAAUGGUCTT against Egfl6, the z-score is inactive: 0.701.

Regarding GGACUCCUACAGGAAACAATT against Kras2, the z-score was inactive: 0.755.

As to CCAUUGCUGUUGUGGUUGATT against H2-Q7, the z-score was inactive: -0.663.

For the sequence GGCUAUGCAGCAUAUUAUATT against Ndufa1, the z-score is inactive: -0.819.

As to “GGAAAAACUGGGAAUGGCUTT against 1600015H20Rik”, the z-score was inactive: 0.609.

Take GCUGAUAAACAUCAGCUACTT against Gm779: the z-score is inactive: 1.39.

Regarding GGUGUGGGUGACCUUUAUCTT against BC010787, the z-score is inactive: -0.517.

For the sequence CGAGCACCUAUUCAUCAUATT against Tdo2, the z-score is inactive: -1.27.
